Among the data in paper PMC12669963, “PGAM5 cleavage and oligomerization equilibrates mitochondrial dynamics under stress by regulating DRP1 function” (Journal of Cell Science, 2025) are binding values, retold here.

The chains behind the UniProt entries cited, without tags or fusion partners.
UniProt O00429: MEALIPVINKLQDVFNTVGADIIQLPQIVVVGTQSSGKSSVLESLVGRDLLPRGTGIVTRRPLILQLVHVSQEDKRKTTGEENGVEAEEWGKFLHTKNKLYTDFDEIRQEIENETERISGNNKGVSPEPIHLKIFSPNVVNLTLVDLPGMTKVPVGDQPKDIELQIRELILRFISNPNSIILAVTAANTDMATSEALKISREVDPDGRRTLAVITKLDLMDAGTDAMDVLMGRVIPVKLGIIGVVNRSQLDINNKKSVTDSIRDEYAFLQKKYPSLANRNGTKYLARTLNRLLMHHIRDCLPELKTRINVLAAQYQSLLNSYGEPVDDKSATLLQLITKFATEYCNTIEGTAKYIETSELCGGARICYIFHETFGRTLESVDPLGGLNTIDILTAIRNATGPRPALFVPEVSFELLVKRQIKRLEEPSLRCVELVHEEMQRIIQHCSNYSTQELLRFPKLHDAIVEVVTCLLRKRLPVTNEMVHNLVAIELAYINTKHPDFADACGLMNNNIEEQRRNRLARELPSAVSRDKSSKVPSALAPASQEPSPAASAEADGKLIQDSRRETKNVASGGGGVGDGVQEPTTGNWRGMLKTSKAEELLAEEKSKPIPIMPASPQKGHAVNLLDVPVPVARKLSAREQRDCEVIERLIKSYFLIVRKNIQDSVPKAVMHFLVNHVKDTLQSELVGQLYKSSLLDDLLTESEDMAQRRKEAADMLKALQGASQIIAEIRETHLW

These are yes or no findings as the source states them, for the method shown. Binding seen in cells or lysates may run through a third protein. Some results given as binding are weak or reduced against the parent protein; the word gives no strength. Tags and fused reporters may be left off the sequences shown.

Test [1] deals with T1, PGAM5 WT GFP (UniProt Q96HS1).
T1 sequence: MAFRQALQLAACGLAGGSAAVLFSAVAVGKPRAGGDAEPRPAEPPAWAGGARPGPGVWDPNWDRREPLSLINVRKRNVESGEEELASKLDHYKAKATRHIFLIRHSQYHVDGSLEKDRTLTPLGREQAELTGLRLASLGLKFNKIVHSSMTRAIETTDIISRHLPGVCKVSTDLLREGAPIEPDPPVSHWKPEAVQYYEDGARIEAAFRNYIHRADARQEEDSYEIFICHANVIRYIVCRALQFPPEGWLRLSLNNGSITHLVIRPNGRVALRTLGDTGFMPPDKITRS
As to the kind of experiment: co-IP; GFP-trap beads on lysates of transfected U2OS cells cultured with medium or starved with HBSS for 3 h; same lysis buffer; western blot. On the technique in general: Immunoblotting shows a protein as a band on a membrane.

The target in test [2] is T1, PGAM5 WT GFP. As to the kind of experiment: co-IP; GFP-trap beads on lysates of transfected HEK293 (methods: HEK293T) cells treated with DMSO or 20 μM CCCP for 2 h; lysis buffer 20 mM Tris-HCl pH 7.4, 200 mM NaCl, 5 mM EDTA, 10 mM MgCl2, 1% Triton X-100; western blot.

Turning to “dynamin-related protein 1 (DRP1) (from UniProt O00429 1-736)”, the binding entry with PGAM5 WT GFP [1] and with PGAM5 WT GFP [2] was “binds” each time.
